# Assay results published in the supplement of paper PMC12819154, “High-throughput peptide-centric local stability assay extends protein–ligand identification to membrane proteins, tissues and bacteria” (Nature Structural & Molecular Biology, 2025).
# The chains behind the UniProt entries cited, without tags or fusion partners. Where a name states a change or a piece, a line headed by the entry shows the natural chain unless it says otherwise.
# UniProt Q04519: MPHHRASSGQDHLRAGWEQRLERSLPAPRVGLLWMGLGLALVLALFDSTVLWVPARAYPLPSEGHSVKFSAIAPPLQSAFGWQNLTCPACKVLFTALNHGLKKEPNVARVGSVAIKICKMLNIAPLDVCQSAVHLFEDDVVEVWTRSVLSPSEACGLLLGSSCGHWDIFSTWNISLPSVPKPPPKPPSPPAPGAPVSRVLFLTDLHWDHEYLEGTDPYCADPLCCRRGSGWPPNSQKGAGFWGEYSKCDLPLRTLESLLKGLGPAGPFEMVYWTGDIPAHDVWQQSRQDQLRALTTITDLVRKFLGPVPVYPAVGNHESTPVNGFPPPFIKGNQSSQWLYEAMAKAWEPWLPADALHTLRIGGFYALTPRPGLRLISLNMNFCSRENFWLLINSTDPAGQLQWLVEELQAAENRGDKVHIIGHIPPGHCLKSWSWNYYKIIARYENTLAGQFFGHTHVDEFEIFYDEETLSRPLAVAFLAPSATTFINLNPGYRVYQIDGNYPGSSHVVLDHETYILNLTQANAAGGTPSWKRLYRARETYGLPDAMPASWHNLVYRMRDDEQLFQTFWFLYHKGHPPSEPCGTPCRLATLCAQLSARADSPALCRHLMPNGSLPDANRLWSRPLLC
# UniProt Q2MHN3: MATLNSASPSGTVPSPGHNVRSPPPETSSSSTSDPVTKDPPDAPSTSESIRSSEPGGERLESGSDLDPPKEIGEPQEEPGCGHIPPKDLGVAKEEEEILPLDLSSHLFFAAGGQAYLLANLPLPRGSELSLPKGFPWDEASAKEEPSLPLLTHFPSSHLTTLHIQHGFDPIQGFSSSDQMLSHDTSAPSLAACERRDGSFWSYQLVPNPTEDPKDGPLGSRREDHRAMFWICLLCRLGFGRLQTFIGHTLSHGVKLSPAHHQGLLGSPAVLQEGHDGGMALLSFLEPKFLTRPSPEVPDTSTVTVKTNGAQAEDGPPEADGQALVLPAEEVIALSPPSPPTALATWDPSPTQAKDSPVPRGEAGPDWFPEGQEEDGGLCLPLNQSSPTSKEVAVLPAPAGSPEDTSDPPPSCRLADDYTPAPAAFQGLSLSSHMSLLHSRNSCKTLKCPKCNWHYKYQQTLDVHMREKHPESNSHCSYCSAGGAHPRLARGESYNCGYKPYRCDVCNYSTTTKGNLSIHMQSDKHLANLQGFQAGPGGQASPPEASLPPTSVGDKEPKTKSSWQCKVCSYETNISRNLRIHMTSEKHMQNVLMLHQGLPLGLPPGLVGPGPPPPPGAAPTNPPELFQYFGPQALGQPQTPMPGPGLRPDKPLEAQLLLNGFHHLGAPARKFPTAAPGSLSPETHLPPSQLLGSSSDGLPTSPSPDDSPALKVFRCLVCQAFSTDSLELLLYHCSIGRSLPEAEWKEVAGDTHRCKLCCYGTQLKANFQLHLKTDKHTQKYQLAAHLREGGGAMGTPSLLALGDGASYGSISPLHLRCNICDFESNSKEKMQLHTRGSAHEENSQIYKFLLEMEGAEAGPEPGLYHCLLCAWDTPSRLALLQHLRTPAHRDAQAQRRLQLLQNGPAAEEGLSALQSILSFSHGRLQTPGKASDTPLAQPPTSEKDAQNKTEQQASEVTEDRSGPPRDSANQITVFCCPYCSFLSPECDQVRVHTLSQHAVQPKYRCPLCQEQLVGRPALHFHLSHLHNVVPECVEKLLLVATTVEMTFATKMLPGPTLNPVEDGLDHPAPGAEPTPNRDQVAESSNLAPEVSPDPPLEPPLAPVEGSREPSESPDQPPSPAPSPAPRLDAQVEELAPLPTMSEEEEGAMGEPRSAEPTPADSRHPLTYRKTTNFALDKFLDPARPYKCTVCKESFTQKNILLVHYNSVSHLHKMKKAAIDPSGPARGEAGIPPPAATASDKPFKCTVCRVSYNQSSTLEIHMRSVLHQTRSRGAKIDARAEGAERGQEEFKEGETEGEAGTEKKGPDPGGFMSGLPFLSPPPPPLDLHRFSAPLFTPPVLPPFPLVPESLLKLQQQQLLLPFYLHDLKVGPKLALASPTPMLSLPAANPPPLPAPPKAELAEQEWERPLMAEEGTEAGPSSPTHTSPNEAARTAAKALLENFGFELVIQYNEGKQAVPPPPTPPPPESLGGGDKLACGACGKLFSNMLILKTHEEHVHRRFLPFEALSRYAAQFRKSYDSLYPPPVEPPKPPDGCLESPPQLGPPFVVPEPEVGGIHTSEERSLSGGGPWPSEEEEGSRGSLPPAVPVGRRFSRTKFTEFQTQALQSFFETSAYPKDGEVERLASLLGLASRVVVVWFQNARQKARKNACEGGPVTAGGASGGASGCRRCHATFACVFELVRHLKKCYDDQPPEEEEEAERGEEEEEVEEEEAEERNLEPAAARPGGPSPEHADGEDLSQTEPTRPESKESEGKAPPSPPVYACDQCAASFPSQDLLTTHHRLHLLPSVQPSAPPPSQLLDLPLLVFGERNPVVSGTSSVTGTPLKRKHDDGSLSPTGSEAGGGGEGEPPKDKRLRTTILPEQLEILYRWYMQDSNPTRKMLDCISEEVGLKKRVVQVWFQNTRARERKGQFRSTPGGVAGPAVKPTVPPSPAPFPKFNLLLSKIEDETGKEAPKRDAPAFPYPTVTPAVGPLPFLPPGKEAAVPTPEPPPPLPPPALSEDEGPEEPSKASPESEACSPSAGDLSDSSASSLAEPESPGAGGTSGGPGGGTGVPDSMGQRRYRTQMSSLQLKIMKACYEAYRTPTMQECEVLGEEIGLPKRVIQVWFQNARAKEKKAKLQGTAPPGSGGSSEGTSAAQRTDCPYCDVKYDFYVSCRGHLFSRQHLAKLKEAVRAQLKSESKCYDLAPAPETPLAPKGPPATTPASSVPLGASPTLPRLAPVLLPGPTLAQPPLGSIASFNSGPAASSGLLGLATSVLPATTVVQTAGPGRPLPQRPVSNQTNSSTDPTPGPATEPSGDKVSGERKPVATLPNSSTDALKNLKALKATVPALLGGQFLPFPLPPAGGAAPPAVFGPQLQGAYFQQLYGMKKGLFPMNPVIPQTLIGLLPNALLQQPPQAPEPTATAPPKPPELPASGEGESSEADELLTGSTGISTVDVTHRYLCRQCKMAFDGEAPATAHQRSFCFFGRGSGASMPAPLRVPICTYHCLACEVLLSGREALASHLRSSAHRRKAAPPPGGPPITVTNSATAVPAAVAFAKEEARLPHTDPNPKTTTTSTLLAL
# UniProt Q08874: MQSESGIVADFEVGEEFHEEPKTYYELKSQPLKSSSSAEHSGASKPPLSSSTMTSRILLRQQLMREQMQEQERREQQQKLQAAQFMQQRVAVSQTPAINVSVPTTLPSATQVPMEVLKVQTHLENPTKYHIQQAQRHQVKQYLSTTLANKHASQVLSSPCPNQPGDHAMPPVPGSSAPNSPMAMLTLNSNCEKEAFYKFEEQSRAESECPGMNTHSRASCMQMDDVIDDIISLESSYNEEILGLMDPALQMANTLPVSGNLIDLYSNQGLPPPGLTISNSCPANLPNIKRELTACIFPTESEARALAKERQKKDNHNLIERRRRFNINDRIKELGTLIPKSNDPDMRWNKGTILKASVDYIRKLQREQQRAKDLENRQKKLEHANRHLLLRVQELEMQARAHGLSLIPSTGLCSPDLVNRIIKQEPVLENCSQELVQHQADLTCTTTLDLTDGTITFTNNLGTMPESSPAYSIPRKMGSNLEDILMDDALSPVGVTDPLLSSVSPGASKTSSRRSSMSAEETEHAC
# UniProt Q3U2U7: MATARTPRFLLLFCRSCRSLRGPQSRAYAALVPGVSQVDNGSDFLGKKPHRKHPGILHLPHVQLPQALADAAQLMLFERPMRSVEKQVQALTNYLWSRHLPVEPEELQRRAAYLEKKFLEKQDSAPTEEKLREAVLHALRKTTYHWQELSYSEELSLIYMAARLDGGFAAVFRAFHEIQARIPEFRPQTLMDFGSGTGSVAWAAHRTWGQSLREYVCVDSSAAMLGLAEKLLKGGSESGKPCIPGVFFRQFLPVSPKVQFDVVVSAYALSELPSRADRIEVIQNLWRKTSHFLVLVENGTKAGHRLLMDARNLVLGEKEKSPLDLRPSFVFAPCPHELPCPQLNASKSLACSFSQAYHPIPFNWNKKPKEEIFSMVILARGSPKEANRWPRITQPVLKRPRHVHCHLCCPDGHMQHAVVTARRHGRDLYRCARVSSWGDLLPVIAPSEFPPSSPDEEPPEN
# UniProt Q06185: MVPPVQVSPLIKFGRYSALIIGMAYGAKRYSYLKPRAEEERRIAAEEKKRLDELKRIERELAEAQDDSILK
# UniProt Q3TNH5: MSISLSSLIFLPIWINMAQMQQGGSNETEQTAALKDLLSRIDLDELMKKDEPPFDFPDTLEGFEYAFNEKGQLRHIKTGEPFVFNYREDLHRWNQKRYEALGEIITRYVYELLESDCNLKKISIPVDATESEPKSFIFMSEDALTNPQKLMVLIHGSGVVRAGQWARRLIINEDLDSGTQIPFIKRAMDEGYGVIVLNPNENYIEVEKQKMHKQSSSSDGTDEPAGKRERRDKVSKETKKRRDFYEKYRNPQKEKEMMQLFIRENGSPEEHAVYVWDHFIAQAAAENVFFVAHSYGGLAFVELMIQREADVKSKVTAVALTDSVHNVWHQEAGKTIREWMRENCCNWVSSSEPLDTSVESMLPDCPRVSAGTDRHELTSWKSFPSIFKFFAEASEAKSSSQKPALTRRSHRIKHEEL
# UniProt Q3TH73: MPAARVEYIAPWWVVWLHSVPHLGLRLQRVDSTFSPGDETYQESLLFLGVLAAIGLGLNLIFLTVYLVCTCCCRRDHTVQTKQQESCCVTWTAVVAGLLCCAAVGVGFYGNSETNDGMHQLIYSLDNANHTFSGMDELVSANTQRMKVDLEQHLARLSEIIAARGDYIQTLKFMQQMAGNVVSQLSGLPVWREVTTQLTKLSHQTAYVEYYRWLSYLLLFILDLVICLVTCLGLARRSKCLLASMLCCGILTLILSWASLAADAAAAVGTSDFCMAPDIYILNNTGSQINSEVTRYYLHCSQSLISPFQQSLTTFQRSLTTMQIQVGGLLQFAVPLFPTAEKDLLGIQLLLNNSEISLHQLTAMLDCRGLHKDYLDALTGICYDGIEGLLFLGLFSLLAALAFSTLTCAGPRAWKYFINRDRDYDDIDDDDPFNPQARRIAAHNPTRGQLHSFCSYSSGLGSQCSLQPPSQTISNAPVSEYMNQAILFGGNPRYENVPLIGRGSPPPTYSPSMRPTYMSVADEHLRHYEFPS
# UniProt Q3TZX8: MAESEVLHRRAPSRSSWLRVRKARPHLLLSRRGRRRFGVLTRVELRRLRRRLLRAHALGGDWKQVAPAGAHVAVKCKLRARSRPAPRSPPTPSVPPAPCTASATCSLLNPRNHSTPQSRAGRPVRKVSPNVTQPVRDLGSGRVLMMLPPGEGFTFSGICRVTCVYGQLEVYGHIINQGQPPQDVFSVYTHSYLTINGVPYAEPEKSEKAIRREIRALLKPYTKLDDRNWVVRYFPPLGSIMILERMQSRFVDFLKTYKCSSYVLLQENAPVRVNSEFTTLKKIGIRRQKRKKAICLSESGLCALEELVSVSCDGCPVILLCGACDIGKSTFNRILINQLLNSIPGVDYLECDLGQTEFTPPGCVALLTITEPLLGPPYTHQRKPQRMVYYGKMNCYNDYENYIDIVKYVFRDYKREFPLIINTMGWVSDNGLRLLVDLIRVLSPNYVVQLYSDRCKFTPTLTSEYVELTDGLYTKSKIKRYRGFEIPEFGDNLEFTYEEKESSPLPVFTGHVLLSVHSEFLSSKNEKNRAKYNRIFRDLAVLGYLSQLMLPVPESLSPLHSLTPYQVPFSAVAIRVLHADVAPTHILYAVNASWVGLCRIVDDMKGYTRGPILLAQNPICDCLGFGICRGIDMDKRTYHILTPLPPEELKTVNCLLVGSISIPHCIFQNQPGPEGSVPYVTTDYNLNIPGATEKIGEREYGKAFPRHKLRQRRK
# UniProt Q04891: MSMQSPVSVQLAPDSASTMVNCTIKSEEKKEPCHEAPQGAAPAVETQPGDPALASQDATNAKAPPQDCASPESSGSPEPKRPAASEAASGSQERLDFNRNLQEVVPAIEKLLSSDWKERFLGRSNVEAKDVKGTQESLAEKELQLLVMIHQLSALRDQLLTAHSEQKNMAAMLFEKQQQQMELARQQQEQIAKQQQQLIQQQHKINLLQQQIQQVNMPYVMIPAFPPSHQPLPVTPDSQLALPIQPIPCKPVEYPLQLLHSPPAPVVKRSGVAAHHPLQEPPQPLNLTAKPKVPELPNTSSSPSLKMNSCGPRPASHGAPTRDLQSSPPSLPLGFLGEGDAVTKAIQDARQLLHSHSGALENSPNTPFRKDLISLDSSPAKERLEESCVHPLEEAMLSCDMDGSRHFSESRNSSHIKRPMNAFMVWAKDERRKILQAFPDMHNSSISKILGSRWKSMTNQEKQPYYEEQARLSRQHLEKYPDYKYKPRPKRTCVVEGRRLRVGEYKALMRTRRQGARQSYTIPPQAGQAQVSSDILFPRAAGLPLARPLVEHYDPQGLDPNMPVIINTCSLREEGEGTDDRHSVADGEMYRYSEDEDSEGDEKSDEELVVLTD
# The other results are listed elsewhere or left out. Small differences around the control level are noise.
# Compound: CN[C@@H]1C[C@H]2O[C@@](C)([C@@H]1OC)n1c3ccccc3c3c4c(c5c6ccccc6n2c5c31)C(=O)NC4 [staurosporine]
# Assay: log2 fold change of tryptic peptide abundance, ligand vs vehicle (limited proteolysis) (log2 ratio); higher = more trypsin-susceptible (destabilized)
# Conditions: ligand concentration: 20 uM; sample: mouse liver crude lysate; replicate design: treated separately
row,Target,log2 fold change
1,"UniProt Q04519 (peptide sequence: VLFTALNHGLK, peptide start residue: 92)",0.451
2,"UniProt Q2MHN3 (peptide sequence: NILLVHYNSVSHLHK, peptide start residue: 1568)",0.596
3,"UniProt Q0KL02 (peptide sequence: GNLGSLPLGK, peptide start residue: 2442)",-0.276
4,"UniProt Q3TNA1 (peptide sequence: ILATGGASHNK, peptide start residue: 451)",-0.595
5,"UniProt Q08874 (peptide sequence: WNKGTILK, peptide start residue: 271)",0.527
6,"UniProt Q3U2U7 (peptide sequence: QDSAPTEEKLR, peptide start residue: 122)",-0.593
7,"UniProt Q0GUM3 (peptide sequence: TKIDSDLWNEK, peptide start residue: 182)",0.312
8,"UniProt Q06185 (peptide sequence: RLDELKR, peptide start residue: 50)",-0.282
9,"UniProt Q3TNH5 (peptide sequence: QSSSSDGTDEPAGKR, peptide start residue: 214)",-0.378
10,"UniProt Q149G0 (peptide sequence: VSEAVSAHTPLDPAMR, peptide start residue: 133)",0.165
11,"UniProt Q3TH73 (peptide sequence: YENVPLIGR, peptide start residue: 494)",-0.17
12,"UniProt Q3U1J1 (peptide sequence: VLDSYGDDYR, peptide start residue: 123)",-0.561
13,"UniProt Q2VPQ9 (peptide sequence: TAPPQIPDTR, peptide start residue: 7)",0.44
14,"UniProt Q3U186 (peptide sequence: VLALPPESLIK, peptide start residue: 16)",0.476
15,"UniProt Q2VPA6 (peptide sequence: YMQLPECGDRDADSGTK, peptide start residue: 91)",-0.534
16,"UniProt Q03142 (peptide sequence: KLHAVPAGNTVK, peptide start residue: 155)",-0.585

row,Target,log2 fold change
1,"UniProt Q2PFD7 (peptide sequence: EHLEENFAIQGDKER, peptide start residue: 385)",-0.285
2,"UniProt Q3TIR3 (peptide sequence: TRPEVGDLLR, peptide start residue: 364)",0.497
3,"UniProt Q0VG62 (peptide sequence: KINIMNHEK, peptide start residue: 38)",-0.341
4,"UniProt Q3TCH7 (peptide sequence: DKDSPNQYHYVA, peptide start residue: 748)",-0.361
5,"UniProt Q04742 (peptide sequence: NHYVVGAERK, peptide start residue: 181)",0.0164
6,"UniProt Q3TC72 (peptide sequence: ALATQLPVIPR, peptide start residue: 83)",0.0576
7,"UniProt Q0VBM2 (peptide sequence: FEGYENPEAVK, peptide start residue: 520)",0.104
8,"UniProt Q08274 (peptide sequence: ELYFYPGCCRSGSQR, peptide start residue: 130)",-0.147
9,"UniProt Q04207 (peptide sequence: RTYETFK, peptide start residue: 304)",-0.584
10,"UniProt Q0VEE6 (peptide sequence: KYEVADVGIEVK, peptide start residue: 597)",0.3
11,"UniProt Q33DR2 (peptide sequence: GLYEDIRK, peptide start residue: 99)",0.129
12,"UniProt Q3HNM7 (peptide sequence: LCRDPDVAQEAVR, peptide start residue: 497)",-0.426
13,"UniProt Q3U319 (peptide sequence: CPKCNAAFGAHDFHR, peptide start residue: 983)",0.708
14,"UniProt Q3TZX8 (peptide sequence: QVAPAGAHVAVKCKLR, peptide start residue: 64)",0.367
15,"UniProt Q04891 (peptide sequence: ILQAFPDMHNSSISK, peptide start residue: 434)",0.746

# An excerpt from the list above, as a working copy:
row,Target,log2 fold change
8,"UniProt Q08274 (peptide sequence: ELYFYPGCCRSGSQR, peptide start residue: 130)",-0.147
9,"UniProt Q04207 (peptide sequence: RTYETFK, peptide start residue: 304)",-0.584
